Consider 39 targets from the supplement of paper PMC12067093, “Discovery and optimisation of a covalent ligand for TRIM25 and its application to targeted protein ubiquitination” (Chemical Science, 2025).

Protein sequences, listed by entry. Tags and fused reporters are not part of them. Lines headed by an entry give the natural chain unless they say otherwise; changes in a name come on top.
UniProt Q9P2I0: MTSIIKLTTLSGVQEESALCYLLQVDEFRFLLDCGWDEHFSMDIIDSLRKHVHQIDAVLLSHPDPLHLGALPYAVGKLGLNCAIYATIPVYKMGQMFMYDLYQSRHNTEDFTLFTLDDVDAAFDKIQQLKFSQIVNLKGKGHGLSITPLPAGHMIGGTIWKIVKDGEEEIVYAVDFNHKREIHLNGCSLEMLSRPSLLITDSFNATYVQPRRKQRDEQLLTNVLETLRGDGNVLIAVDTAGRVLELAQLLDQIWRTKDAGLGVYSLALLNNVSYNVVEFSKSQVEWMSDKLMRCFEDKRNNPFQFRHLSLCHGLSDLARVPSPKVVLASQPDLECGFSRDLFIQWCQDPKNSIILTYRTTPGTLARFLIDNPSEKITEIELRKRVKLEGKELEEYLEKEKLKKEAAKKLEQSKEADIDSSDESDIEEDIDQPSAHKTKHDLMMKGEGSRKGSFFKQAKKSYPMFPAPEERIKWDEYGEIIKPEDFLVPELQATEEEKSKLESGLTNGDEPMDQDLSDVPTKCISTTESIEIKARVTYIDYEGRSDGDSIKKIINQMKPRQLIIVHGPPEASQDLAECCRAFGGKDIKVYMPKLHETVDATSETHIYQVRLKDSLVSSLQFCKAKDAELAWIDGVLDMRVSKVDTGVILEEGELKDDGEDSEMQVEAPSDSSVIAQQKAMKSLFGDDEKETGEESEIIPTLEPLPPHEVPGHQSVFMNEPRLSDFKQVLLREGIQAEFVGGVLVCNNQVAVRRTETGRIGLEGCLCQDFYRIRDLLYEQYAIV
UniProt P23786: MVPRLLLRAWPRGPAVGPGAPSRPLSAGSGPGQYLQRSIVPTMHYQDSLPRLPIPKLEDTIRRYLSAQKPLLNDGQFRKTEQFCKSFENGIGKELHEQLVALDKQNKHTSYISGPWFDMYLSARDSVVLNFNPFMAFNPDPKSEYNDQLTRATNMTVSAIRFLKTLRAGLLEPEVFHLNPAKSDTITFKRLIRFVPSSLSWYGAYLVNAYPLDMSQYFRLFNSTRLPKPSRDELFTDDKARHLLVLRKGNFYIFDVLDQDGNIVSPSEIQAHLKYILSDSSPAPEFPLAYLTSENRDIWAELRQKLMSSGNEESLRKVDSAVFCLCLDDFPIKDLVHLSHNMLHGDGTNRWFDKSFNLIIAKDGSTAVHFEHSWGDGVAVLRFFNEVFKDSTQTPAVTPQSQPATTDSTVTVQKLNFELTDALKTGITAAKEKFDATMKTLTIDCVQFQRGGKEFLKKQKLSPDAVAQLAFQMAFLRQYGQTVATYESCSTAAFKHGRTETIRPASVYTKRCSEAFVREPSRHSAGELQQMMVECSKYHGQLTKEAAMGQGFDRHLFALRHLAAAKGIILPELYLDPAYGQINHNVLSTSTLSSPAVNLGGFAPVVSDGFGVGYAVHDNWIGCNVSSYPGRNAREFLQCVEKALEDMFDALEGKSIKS
UniProt O75718: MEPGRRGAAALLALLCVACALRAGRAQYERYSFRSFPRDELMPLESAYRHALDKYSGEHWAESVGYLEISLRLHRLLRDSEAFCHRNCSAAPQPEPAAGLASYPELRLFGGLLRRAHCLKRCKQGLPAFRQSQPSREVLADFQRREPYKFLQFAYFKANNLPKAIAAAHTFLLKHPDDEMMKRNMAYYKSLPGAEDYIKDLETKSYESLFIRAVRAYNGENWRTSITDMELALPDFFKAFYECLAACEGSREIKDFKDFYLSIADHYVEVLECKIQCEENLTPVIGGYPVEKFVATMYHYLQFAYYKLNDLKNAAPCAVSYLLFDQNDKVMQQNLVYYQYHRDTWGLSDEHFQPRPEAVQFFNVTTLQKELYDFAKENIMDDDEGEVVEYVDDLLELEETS
UniProt O75534: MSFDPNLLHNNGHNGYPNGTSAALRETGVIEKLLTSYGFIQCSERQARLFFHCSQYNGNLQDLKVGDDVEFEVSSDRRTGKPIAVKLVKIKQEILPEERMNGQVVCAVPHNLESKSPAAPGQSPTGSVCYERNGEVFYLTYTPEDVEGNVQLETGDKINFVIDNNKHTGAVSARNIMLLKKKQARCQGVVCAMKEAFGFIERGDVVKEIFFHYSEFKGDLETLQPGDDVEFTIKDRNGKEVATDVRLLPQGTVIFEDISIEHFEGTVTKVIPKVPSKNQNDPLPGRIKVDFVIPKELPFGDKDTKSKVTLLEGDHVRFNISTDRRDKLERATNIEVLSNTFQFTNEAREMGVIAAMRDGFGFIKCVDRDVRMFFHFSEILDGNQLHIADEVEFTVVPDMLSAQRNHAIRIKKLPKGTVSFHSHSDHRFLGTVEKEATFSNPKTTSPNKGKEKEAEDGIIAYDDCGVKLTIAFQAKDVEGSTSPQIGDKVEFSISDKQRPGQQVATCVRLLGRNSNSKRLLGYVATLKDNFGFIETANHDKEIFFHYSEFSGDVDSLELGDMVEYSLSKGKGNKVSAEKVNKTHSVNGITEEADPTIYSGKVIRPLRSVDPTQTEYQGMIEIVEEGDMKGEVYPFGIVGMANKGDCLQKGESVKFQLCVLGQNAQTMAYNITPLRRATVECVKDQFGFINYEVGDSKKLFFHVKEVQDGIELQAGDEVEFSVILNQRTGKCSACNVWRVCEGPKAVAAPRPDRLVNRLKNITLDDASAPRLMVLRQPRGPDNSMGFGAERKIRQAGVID
UniProt P14854, whole entry, looked up: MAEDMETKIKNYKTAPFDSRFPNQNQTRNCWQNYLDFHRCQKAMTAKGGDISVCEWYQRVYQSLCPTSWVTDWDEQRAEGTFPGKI
UniProt Q10570: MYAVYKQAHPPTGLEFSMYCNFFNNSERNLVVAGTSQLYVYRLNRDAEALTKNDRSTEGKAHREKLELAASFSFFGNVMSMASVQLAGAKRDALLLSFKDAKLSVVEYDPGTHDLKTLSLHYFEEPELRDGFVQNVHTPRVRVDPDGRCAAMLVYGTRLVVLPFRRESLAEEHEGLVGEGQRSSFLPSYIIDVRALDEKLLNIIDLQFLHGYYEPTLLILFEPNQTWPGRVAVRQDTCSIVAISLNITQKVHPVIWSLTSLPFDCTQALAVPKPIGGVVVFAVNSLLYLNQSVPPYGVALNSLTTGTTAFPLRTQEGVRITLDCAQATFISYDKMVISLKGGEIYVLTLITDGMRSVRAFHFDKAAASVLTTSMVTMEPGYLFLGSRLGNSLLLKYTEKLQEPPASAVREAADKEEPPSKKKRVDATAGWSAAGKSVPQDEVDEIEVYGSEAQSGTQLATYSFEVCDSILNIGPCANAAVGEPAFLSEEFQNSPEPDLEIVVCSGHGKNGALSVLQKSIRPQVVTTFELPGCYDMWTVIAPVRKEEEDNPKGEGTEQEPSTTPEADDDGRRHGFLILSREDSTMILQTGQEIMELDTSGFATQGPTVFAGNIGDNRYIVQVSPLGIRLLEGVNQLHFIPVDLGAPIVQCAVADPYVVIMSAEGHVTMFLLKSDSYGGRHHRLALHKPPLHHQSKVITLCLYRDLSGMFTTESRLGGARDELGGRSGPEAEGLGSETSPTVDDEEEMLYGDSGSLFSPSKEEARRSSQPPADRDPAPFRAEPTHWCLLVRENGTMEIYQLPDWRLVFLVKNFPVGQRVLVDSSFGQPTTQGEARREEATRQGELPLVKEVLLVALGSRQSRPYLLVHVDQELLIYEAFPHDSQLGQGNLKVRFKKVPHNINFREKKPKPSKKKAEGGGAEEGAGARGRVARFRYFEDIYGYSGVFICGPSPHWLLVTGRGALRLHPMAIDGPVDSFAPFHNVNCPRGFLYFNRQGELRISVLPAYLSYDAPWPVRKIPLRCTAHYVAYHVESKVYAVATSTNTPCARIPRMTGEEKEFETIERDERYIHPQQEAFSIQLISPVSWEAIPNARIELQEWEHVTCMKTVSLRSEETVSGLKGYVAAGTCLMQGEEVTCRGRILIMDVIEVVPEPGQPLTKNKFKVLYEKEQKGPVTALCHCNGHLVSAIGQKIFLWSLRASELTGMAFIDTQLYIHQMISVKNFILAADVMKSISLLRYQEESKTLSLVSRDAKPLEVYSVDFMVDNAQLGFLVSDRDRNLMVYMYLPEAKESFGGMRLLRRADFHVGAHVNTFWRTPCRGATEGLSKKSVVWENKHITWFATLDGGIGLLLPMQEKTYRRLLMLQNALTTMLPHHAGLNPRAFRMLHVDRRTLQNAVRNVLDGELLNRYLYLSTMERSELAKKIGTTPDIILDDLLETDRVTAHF
UniProt Q05048: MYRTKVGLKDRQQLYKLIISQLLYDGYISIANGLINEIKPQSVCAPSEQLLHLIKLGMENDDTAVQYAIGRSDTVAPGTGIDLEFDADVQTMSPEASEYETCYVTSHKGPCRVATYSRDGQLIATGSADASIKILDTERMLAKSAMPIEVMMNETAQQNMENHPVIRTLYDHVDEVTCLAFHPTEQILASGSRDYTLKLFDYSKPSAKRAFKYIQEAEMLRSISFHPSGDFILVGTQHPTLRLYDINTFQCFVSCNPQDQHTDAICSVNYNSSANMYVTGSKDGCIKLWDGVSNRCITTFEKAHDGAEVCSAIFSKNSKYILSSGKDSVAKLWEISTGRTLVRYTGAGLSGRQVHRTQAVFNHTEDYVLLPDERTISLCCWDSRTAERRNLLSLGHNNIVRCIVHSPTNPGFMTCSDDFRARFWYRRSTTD
UniProt Q96HD1: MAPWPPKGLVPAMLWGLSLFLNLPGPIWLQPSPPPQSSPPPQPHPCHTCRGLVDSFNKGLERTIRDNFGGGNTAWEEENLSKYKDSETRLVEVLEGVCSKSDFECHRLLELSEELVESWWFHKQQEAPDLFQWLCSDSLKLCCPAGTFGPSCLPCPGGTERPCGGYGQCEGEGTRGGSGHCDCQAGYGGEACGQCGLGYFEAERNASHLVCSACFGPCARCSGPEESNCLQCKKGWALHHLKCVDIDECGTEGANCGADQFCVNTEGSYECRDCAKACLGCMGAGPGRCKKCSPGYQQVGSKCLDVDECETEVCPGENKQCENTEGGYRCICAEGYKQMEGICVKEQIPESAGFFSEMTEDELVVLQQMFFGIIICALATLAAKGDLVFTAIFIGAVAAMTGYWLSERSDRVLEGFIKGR
UniProt Q9BR76, whole entry, looked up: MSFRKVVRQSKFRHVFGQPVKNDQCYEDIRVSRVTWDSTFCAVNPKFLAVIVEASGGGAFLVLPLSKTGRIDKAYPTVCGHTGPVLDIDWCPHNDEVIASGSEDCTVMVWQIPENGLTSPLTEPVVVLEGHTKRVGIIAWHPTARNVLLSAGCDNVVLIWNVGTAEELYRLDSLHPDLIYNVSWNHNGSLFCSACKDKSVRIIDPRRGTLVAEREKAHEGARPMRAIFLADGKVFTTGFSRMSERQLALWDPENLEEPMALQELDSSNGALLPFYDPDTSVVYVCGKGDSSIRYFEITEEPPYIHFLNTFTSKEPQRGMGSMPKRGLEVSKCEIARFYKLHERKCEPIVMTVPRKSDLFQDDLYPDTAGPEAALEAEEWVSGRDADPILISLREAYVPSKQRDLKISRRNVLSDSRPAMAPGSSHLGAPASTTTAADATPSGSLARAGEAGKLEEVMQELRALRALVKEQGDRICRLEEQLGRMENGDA
UniProt Q9UKG9: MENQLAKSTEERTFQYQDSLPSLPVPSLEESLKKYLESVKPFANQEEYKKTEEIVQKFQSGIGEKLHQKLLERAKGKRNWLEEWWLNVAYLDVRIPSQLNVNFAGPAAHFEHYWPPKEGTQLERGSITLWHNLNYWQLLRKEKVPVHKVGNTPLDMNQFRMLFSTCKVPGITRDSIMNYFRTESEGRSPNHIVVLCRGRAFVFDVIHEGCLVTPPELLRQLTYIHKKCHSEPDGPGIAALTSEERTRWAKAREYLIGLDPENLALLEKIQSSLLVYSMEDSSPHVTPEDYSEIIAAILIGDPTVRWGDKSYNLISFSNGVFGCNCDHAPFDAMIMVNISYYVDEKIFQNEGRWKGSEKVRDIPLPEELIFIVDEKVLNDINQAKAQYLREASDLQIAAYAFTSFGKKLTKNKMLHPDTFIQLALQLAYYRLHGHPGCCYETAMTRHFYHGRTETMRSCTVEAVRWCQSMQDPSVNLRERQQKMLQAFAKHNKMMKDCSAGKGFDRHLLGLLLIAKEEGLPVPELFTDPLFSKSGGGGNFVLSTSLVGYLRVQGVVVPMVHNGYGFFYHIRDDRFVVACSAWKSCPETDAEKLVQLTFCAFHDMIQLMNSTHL
UniProt P41240: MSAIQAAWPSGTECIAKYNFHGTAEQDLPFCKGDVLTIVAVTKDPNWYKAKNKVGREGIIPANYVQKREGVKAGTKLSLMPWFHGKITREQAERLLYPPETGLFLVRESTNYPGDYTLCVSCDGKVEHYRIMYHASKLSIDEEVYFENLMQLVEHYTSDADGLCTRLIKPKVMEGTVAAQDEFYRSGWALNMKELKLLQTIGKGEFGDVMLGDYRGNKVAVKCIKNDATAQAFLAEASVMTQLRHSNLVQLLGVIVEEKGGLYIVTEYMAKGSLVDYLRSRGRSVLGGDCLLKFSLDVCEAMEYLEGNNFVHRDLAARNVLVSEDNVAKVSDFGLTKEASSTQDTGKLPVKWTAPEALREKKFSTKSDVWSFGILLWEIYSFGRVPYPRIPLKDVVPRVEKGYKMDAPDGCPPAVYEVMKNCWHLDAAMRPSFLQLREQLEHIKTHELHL

This is one part of the list.
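Also: competitive chemoproteomic profiling in live THP-1 cells with an iodoacetamide desthiobiotin (IA-DTB) probe, comparing probe-labelled peptide intensities in compound-treated cells against DMSO-treated controls.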

Compound in this assay: CC1Cc2ccccc2N1C(=O)C1CCCN(C1)C(=O)CCl (mixture of isomers) [TRIM25 ligand 11 (diastereomer mixture)]
The assay can be described thus: probe-labelled cysteine peptide fold change vs DMSO (competition) (log2 fold change); higher = less target engagement (more negative = stronger competition). As to conditions: 10 µM; THP-1; incubation time: 4 h.
On to “CPSF2_Q9P2I0_311_HLSLCHGLSDLAR (UniProt Q9P2I0)”, for which the “probe-labelled cysteine peptide fold change” value is 0.192. The value for “CRYBG1_Q9Y4K1_503_GCVLPVSR (UniProt Q9Y4K1)” was -0.0878; that for “CPT2_P23786_326_VDSAVFCLCLDDFPIK (UniProt P23786)” was 0.237.

Take “CRABP1_P29762_130_ELANDELILTFGADDVVCTR (UniProt P29762)”: the “probe-labelled cysteine peptide fold change” value is -0.139.

For the target “CRTAP_O75718_84_DSEAFCHR (UniProt O75718)”, the “probe-labelled cysteine peptide fold change” value was determined as 0.0823. The value for “CRACR2A_Q9BSW2_220_NELECALK (UniProt Q9BSW2)” was -0.0901; that for “CSDE1_O75534_657_FQLCVLGQNAQTMAYNITPLRR (UniProt O75534)” was -0.297. With “CTNNBL1_Q8WYA6_320_RHNPSTAEEQEMMENLFDSLCSCLMLSSNR (UniProt Q8WYA6)”, the “probe-labelled cysteine peptide fold change” value amounted to 0.0709. With “CORO7_P57737_75_RVAHLGCHSDLVTDLDFSPFDDFLLATGSADR (UniProt P57737)”, the “probe-labelled cysteine peptide fold change” value amounted to 0.395.

Take “COX6B1_P14854_30_NCWQNYLDFHR (UniProt P14854)”: the “probe-labelled cysteine peptide fold change” value was -0.0828. Consider “CRIP1_P50238_56_PYCNHPCYAAMFGPK (UniProt P50238)”, for which the “probe-labelled cysteine peptide fold change” value is -0.356. The value for CPM_P14384_341_KHICPYR (UniProt P14384) was -0.101; that for “CPSF1_Q10570_324_ITLDCAQATFISYDK (UniProt Q10570)” was 0.00457. For “CSDE1_O75534_365_CVDRDVR (UniProt O75534)”, the “probe-labelled cysteine peptide fold change” value was found to be 0.392. Regarding “CPNE3_O75131_202_ISLNSLCYGDMDK (UniProt O75131)”, the “probe-labelled cysteine peptide fold change” value turned out to be 0.0223.

With “CSTF1_Q05048_296_CITTFEK (UniProt Q05048)”, the “probe-labelled cysteine peptide fold change” value was determined as 0.0929. The value for “CSDE1_O75534_645_GDCLQK (UniProt O75534)” was 0.0331; that for “CRYBG1_Q9Y4K1_1404_ISSVQPICLDSFTGPR (UniProt Q9Y4K1)” was 0.199; that for “CRELD1_Q96HD1_229_CSGPEESNCLQCK (UniProt Q96HD1)” was 0.0143. Next, “CPSF2_Q9P2I0_34_FLLDCGWDEHFSMDIIDSLRK (UniProt Q9P2I0)”: 0.156. Next, “CORO1C_Q9ULV4_23_NDQCYDDIR (UniProt Q9ULV4)”: -0.0287; “CORO1A_P31146_285_HLEEPLSLQELDTSSGVLLPFFDPDTNIVYLCGK (UniProt P31146)”: -0.00211.

Consider “CORO1B_Q9BR76_25_NDQCYEDIR (UniProt Q9BR76)”, for which the “probe-labelled cysteine peptide fold change” value came to 0.0311. For “CSE1L_P55060_939_LSTACPGR (UniProt P55060)”, the “probe-labelled cysteine peptide fold change” value came out at 0.0647.

Take CTCF_P49711_299_CHLCGR (UniProt P49711): the “probe-labelled cysteine peptide fold change” value was 0.0219. The value for “CROT_Q9UKG9_584_SCPETDAEK (UniProt Q9UKG9)” was 0.149. Take “CRYBG1_Q9Y4K1_594+609_EVQLPTCHSNEPEVVSVASCAPPQEEVLGNEHSHCTAELAAK (UniProt Q9Y4K1)”: the “probe-labelled cysteine peptide fold change” value is -0.0918.

On to “CTIF_O43310_556_MLCPSESMLTR (UniProt O43310)”, for which the “probe-labelled cysteine peptide fold change” value was -0.134. Next, “CSK_P41240_290_SVLGGDCLLK (UniProt P41240)”: -0.03; “CTC1_Q2NKJ3_535_NAHNEILEEPHHCPLQK (UniProt Q2NKJ3)”: -0.00774.

On to “CRLF3_Q8IUI8_336_DSIGVCAEK (UniProt Q8IUI8)”, for which the “probe-labelled cysteine peptide fold change” value amounted to 0.0372. The value for “CRELD1_Q96HD1_135_QQEAPDLFQWLCSDSLK (UniProt Q96HD1)” was 0.141; that for “CSDE1_O75534_106_MNGQVVCAVPHNLESK (UniProt O75534)” was 0.118; that for “CORO1A_P31146_195_DGGLICTSCR (UniProt P31146)” was -0.0266. With “CSRP1_P21291_58_NLDSTTVAVHGEEIYCK (UniProt P21291)”, the “probe-labelled cysteine peptide fold change” value came to 0.119. Turning to “CRTAP_O75718_247_AFYECLAACEGSR (UniProt O75718)”, the “probe-labelled cysteine peptide fold change” value was found to be 0.322.

Turning to “CSK_P41240_122_ESTNYPGDYTLCVSCDGK (UniProt P41240)”, the “probe-labelled cysteine peptide fold change” value came out at 0.0244. The value for “CRYZL1_O95825_274_HDIITLLGVGGHWVTTEENLQLDPPDSHCLFLK (UniProt O95825)” was 0.0843; that for “CPD_O75976_195_EGDCGFGDGGPSGASGR (UniProt O75976)” was 0.275.
